According to patent US4530930A, “Antimicrobial 1-ethyl-6,8-difluoro-1,4-dihydro-7-(1-imidazolyl)-4-oxoquinoline-3-carbo xylic acid derivatives” (Kanebo, Ltd., priority 1982, dated 1985):
Values after ≈ are worked out from the molar mass of the structure shown.

What was measured:
[1] = test system: Serratia marcescens IAM 1184; experiment: MIC; format: cell-based; settings: IAM1184, gram negative
Method: In accordance with the method as disclosed in Chemotherapy, Vol. 29, pages 76-79 (1981), MIC (μg/ml) of each test compound was measured.

[2] = Bioavailability in oral administration in mice; design: species or system ddY-strain male mice; settings: mouse, in vivo, oral 50 mg/kg
Method: Each of the test compounds was suspended in a 0.5% sodium carboxymethylcellulose to prepare a suspension having a concentration of 5 mg/ml of the compound.
ddY-strain male mice (5 week old, weighing 22 to 25 g, three per group) were used. The suspension was orally administered to mice fasted for 16 hours. The dose of the test compound was adjusted to 50 mg/kg of body weight of animal. 30, 60, 120, and 240 minutes after the administration of the test compound, blood was taken out from each mouse, and the blood sample thus obtained was centrifuged at 3,000 rpm for 20 minutes to obtain a serum sample.

[3] = Bioavailability in oral administration in rats; design: species or system Wistar-strain male rats; AUC at 4 h: concentration or dose not given beside the values; settings: rat, in vivo
Method: Each of the test compounds was suspended in a 0.5% sodium carboxymethylcellulose to prepare a suspension having a concentration of 5 mg/ml of the test compound.
Wistar-strain male rats (weighing 160 g ±20 g, three per group) were used. The suspension was orally administered to rats fasted 16 hours. 30, 60, 120, and 240 minutes after the administration of the test compound, blood was taken out from the rats. The blood was centrifuged at 3,000 rpm for 20 minutes to obtain a plasma sample. In the same manner as described in Experiment 2, the concentration (μg/ml) of test compound in plasma and also AUC (μg.hr/ml) were measured.

in vivo [4] = settings: mouse, po, mice, one week, Weil method
Method: (§1) The acute toxicities in oral administration and intravenous injection of the test compounds were tested as follows:
In oral administration: To ddY-strain male mice (weighing 20-25 g, five per group) was administered orally a suspension of each test compound in a 0.5% sodium carboxymethylcellulose. One week after the administration of the test compound, the 50% lethal dose (LD50) was determined in accordance with the Weil method [cf. J. Biometric Soc., 8, 249 (1959)].

in vivo [5] = settings: mouse, iv, mice, one week, Weil method
Method: as §1
In intravenous administration: Each of the test compounds was dissolved in 1N aqueous sodium hydroxide solution and thereto was added a phosphoric acid-saline buffer (pH 7.2) to prepare a test solution. The test solution was intravenously injected to ddy-strain male mice (weighing 20-25 g, five per group). One week after the administration of the test solution, the LD50 was determined in accordance with Weil method.

In the case of `CCn1cc(C(=O)O)c(=O)c2cc(F)c(N3CCN(C)CC3)cc21` [B, 1-ethyl-1,4-dihydro-6-fluoro-7-[1-(4-methylpiperazinyl)]-4-oxoquinoline-3carboxylic acid], the MIC [1] is reported as 0.39 µg/mL (≈ 1.17 µM), the concentration at 0.5 h ([2]; after 30 min., read-out: Concentration in serum) is reported as 12200 ± 2500 ng/mL and the concentration at 1 h ([2]; after 60 min., read-out: Concentration in serum) is reported as 5400 ± 600 ng/mL. It also gave a concentration at 2 h ([2]; after 120 min., read-out: Concentration in serum) of 3500 ± 600 ng/mL, a concentration at 4 h ([2]; after 240 min., read-out: Concentration in serum) of 2300 ± 200 ng/mL and an AUC at 4 h ([2]; serum, 1-4 hrs.) of 17800 ng·h/mL. For the same compound, the concentration at 0.5 h ([3]; after 30 min., read-out: Concentration in plasma) was 11800 ± 1100 ng/mL, the concentration at 1 h ([3]; after 60 min., read-out: Concentration in plasma) was 14200 ± 800 ng/mL and the concentration at 2 h ([3]; after 120 min., read-out: Concentration in plasma) was 7800 ± 300 ng/mL. For the same compound, the concentration at 4 h ([3]; after 240 min., read-out: Concentration in plasma) was 5000 ± 300 ng/mL, the AUC at 4 h ([3]; plasma, 1-4 hrs.) was 33200 ng·h/mL and the LD50 at 168 h (in vivo [4]) was greater than 4000 mg/kg. The LD50 at 168 h (in vivo [5]) was 555 mg/kg.
